# Experimental data taken from patent publication US11903983B2, “Composition comprising new Lactobacillus salivarius strains and method for the prevention and treatment of otitis and upper respiratory infections” (priority 2018, dated 2024).
# At least one compound was matched to its structure with a doubt left.
# System: L. salivarius PS7
# Test: Antibiogram: MIC by VetMIC microdilution and E-test
# Type: cell-based, Lactobacillus salivarius
# Description: The suspension was further adjusted to 3×10^5 CFU/ml with LSM, and 100 μl were inoculated to wells of microtiter VetMIC plates for lactic acid bacteria (National Veterinary Institute of Sweden, Uppsala, Sweden). The plates were incubated at 37° C. for 48 h and the MIC was defined as the lowest concentration at which no growth was observed.
# Parallel, minimum inhibitory concentrations (MICs) were also determined by the E-test (AB BIODISK, Solna, Sweden) following the instructions of the manufacturer. Briefly, after overnight incubation, agar cultures were checked for purity. For inoculums preparation, individual colonies were suspended in a sterile glass culture tube containing 5 ml sterile saline (0.85% NaCl solution) until a density corresponding to a McFarland (McF) standard of 0.5 was obtained. A sterile cotton swab was dipped into the standardized inoculum and used to inoculate an agar plate. Inoculated plates were allowed to dry for approximately 15 min before application of the E-test strips with preformed antimicrobial gradients. […] For bacteriostatic agents (e.g., tetracycline, erythromycin and clindamycin), the MIC was read at the point where growth was inhibited by 80% (i.e., the first point of significant inhibition as judged by the naked eye). […]
smiles,measurement,value
NC[C@H]1O[C@H](O[C@H]2[C@H](O)[C@@H](O[C@H]3O[C@H](CO)[C@@H](O)[C@H](N)[C@H]3O)[C@H](N)C[C@@H]2N)[C@H](O)[C@@H](O)[C@@H]1O [Kanamycin],antibiotic susceptibility of L. salivarius PS7 according to EFSA cut-off levels,intrinsically resistant
